The structures given here were assigned with low confidence; some may be wrong.
Target: human PDE9A2 (Homo sapiens, UniProt O76083)
Assay: PDE9A2 enzymatic activity assay (scintillation proximity assay, SPA)
Conditions: for % inhibition of PDE9A2 (at 10 micromolar concentration): values above 100% adjusted to 100%; for IC50: read-out: IC50 within range [nanomolar (nM)], reported only as range 1-100 or 101-1200 nanomolar, specific value lies within range

Sequences of proteins named here, by UniProt entry; tags and fusion partners are left off. Residues count along the entry.
UniProt O76083, 1-533 isoform 2: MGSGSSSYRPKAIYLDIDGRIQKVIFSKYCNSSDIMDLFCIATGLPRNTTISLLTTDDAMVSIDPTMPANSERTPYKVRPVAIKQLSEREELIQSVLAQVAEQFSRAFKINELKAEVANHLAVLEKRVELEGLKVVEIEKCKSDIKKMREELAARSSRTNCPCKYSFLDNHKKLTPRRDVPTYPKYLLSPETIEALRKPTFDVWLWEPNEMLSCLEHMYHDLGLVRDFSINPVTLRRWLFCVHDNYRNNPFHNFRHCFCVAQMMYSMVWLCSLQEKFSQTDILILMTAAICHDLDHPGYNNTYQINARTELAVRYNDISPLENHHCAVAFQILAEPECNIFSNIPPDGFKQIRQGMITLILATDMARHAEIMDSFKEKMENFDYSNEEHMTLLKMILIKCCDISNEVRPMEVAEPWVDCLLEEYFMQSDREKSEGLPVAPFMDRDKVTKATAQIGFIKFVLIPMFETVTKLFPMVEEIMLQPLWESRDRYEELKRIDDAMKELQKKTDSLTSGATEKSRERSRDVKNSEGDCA

Structure (SMILES)	% inhibition of PDE9A2 (at 10 micromolar concentration)	IC50
O=c1[nH]c(Cc2ccccc2F)nc2c1cnn2C1CCOCC1	99%	1 to 100 nM
O=c1[nH]c(Cc2cccc(F)c2F)nc2c1cnn2C1CCOCC1	98%	1 to 100 nM

— patent publication US8623879B2, “1-heterocyclyl-1,5-dihydro-pyrazolo[3,4-D] pyrimidin-4-one derivates and their use as PDE9A modulators” (Boehringer Ingelheim International GmbH, priority 2008, dated 2014)
